Data taken from patent US6025467A, “Parathyroid hormone derivatives and their use” (Takeda Chemical Industries, Ltd., priority 1995, dated 2000).
Not every detail of the peptide structures is certain; ends, links or a residue may be inferred. Non-standard residues stand in square brackets, D forms with d. Residues, ends and D or L forms follow the SMILES beside them. 2Nal = N[C@@H](Cc1ccc2ccccc2c1)C(=O)O

Target: T1, PTH receptor (Mus musculus, UniProt P41593)
T1 construct: a mouse cranial bone-derived osteoblast-like cell strain, MC3T3-EI cells; endogenous in cells; host or cells: MC3T3-E1 mouse osteoblast-like cells
T1 sequence (P41593 27-591): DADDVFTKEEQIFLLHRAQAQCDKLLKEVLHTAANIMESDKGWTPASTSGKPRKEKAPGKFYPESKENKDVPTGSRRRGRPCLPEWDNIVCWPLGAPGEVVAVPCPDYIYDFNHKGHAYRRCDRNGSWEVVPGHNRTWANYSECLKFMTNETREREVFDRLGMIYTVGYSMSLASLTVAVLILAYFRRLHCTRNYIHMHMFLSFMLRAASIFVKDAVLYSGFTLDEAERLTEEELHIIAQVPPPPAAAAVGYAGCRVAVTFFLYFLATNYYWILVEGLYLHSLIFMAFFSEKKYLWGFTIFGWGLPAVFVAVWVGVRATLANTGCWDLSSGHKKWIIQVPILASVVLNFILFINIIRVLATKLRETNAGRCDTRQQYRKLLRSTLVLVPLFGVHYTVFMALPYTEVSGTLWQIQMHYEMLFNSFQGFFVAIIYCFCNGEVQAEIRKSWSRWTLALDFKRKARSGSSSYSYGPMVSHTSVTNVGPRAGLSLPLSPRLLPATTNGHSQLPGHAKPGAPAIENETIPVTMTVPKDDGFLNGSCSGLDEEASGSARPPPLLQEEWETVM
Assay: cAMP increase in MC3T3-EI osteoblast-like cells (biological activity in vitro)
Assay type: cell-based
Details: 1 nM analogue, room temperature for 30 minutes, total cAMP by radioimmunoassay
Procedure: The biological activity of the PTH(1-34) peptide analogues was evaluated by the method reported by Shigeno et al., The Journal of Biological Chemistry, 263, 18369-18377 (1988) with a modification. A culture solution (Hank's solution, containing 20 mM N-2-hydroxyethylpiperazine-N'-2-ethanesulfonic acid (HEPES), 0.1% bovine serum albumin and 0.5 mM isobutylmethyl-xanthine) containing a 0.01, 0.1, 1, 10 or 100 nM peptide derivative was added in an amount of 100 μl to a mouse cranial bone-derived osteoblast-like cell strain, MC3T3-EI cells, cultivated on a 96-well multiplate (Nunclon, Nunc), followed by reaction at room temperature for 30 minutes. After addition of 100 μl of 0.2N hydrochloric acid, the plate was immersed in boiling water for 2.5 minutes to extract cyclic adenosine monophosphate (cAMP) produced by a PTH receptor from the cells. The total cAMP in the culture solution and the cells was assayed using a commercial radioimmunoassay kit (cyclic AMP [^125 I] kit "Du Pont-Daiichi", Daiichi Kagaku Yakuhin). For the biological activity of the PTH(1-34) peptide derivatives, increases in cAMP caused by 1 nM analogues are shown in Table 3.

CC[C@H](C)[C@H](NC(=O)[C@H](CCC(=O)O)NC(=O)[C@H](CO)NC(=O)[C@@H](NC(=O)[C@@H](N)CO)C(C)C)C(=O)N[C@@H](CCC(N)=O)C(=O)N[C@@H](CC(C)C)C(=O)N[C@@H](CCSC)C(=O)N[C@@H](Cc1c[nH]cn1)C(=O)N[C@@H](CC(=O)O)C(=O)N[C@@H](Cc1ccc2ccccc2c1)C(=O)NCC(=O)N[C@@H](CCCCN)C(=O)N[C@@H](Cc1c[nH]cn1)C(=O)N[C@@H](CC(C)C)C(=O)N[C@@H](CC(N)=O)C(=O)N[C@@H](CO)C(=O)N[C@@H](CCSC)C(=O)N[C@@H](CCC(=O)O)C(=O)N[C@@H](CCCNC(=N)N)C(=O)N[C@H](C(=O)N[C@@H](CCC(=O)O)C(=O)N[C@@H](Cc1c[nH]c2ccccc12)C(=O)N[C@@H](CC(C)C)C(=O)N[C@@H](CCCNC(=N)N)C(=O)N[C@@H](CCCCN)C(=O)N[C@@H](CCCCN)C(=O)N[C@@H](CC(C)C)C(=O)N[C@@H](CCC(N)=O)C(=O)N[C@@H](CC(=O)O)C(=O)N[C@H](C(=O)N[C@@H](Cc1c[nH]cn1)C(=O)N[C@@H](CC(N)=O)C(=O)N[C@@H](Cc1ccccc1)C(=O)O)C(C)C)C(C)C [(6), [Asp^10, Ala(2-Naph)^11] hPTH(1-34)] (H-SVSEIQLMHD[2Nal]GKHLNSMERVEWLRKKLQDVHNF-OH)
cAMP increase: 2.65 pmol/well
